# Measurements as given in the supplement of paper PMC12819154, “High-throughput peptide-centric local stability assay extends protein–ligand identification to membrane proteins, tissues and bacteria” (Nature Structural & Molecular Biology, 2025).
# Sequences of proteins named here, by UniProt entry; tags and fusion partners are left off. A change or cut given only in a name is not applied to a line headed by its entry.
# UniProt Q5T2R2: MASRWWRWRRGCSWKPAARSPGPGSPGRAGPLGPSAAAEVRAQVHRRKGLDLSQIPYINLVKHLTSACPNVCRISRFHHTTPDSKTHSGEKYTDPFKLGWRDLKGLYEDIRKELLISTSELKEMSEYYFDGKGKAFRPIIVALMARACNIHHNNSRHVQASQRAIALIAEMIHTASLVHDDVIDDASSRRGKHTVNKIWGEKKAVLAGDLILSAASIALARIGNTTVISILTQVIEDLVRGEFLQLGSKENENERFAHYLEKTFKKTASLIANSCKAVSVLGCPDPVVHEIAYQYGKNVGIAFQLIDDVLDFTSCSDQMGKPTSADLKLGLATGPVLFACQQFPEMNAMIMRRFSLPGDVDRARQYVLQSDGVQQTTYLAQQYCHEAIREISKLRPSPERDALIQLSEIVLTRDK
# UniProt Q53FT3: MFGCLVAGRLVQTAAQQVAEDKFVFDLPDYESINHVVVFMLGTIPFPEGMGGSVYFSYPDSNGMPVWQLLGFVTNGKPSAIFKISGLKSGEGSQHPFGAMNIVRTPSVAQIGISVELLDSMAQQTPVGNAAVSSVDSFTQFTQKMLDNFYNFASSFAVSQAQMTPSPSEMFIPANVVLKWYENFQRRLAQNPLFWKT
# UniProt Q5JSJ4, whole entry: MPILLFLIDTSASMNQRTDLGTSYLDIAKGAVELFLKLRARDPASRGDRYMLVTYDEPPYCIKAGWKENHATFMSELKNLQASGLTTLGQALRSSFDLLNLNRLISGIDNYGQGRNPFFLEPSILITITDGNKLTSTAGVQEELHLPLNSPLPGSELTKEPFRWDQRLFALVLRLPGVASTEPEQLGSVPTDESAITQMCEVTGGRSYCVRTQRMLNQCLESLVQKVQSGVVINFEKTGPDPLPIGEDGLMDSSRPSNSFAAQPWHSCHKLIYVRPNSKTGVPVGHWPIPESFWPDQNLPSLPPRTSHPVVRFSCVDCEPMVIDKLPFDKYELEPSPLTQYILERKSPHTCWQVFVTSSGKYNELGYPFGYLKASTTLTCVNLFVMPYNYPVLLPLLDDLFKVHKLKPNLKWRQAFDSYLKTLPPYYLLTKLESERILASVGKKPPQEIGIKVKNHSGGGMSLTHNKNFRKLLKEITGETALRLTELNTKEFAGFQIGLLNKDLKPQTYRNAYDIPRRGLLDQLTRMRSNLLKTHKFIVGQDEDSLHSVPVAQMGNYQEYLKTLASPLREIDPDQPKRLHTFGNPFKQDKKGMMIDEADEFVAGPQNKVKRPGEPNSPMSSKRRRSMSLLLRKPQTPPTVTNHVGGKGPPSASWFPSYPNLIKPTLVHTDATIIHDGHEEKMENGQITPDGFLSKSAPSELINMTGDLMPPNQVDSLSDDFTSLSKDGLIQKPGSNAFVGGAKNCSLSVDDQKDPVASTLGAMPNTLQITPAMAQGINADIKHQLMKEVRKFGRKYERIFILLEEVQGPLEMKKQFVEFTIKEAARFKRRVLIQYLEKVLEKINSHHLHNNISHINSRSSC
# UniProt Q5T5D7: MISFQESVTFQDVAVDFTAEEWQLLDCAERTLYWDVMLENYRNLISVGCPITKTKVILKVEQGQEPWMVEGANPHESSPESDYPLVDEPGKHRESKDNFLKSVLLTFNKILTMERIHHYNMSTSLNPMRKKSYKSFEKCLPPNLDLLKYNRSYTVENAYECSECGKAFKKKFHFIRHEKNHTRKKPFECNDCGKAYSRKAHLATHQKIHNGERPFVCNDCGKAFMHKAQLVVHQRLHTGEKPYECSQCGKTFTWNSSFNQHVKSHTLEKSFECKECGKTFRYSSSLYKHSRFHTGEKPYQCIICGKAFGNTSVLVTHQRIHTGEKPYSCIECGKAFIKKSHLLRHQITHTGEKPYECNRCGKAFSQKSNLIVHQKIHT
# UniProt Q49AM3: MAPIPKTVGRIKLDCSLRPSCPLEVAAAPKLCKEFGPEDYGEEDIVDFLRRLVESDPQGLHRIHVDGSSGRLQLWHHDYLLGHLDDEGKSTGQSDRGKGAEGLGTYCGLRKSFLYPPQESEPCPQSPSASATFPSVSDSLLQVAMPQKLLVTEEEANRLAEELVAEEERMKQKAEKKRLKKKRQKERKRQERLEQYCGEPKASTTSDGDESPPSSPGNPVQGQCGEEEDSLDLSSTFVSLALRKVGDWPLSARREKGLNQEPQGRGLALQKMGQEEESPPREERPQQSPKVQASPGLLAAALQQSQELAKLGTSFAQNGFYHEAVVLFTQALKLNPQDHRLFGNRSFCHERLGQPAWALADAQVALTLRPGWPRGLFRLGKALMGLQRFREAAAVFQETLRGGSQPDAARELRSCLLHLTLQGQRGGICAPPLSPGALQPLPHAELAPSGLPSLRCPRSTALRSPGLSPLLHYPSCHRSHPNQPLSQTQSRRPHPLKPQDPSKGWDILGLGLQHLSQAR
# UniProt Q5TFE4: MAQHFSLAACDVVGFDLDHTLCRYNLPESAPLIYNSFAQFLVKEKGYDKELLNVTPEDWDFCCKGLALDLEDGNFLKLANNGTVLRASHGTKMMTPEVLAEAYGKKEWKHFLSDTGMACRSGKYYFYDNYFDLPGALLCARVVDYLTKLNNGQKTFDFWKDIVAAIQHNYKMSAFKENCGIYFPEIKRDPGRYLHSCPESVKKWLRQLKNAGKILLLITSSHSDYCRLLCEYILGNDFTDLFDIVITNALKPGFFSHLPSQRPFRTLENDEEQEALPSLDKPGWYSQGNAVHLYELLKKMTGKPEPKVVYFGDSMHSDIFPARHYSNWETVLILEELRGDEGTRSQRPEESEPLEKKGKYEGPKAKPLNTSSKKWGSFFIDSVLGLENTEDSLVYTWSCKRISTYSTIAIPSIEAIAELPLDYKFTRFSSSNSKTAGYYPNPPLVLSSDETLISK
# UniProt Q4VC05, whole entry: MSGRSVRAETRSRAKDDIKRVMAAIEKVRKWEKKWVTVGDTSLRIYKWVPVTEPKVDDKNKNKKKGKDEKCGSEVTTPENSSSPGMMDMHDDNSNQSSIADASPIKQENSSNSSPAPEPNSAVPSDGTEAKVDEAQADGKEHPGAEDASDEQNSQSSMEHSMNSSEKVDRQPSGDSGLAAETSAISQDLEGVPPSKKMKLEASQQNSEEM
# UniProt Q5EBL4: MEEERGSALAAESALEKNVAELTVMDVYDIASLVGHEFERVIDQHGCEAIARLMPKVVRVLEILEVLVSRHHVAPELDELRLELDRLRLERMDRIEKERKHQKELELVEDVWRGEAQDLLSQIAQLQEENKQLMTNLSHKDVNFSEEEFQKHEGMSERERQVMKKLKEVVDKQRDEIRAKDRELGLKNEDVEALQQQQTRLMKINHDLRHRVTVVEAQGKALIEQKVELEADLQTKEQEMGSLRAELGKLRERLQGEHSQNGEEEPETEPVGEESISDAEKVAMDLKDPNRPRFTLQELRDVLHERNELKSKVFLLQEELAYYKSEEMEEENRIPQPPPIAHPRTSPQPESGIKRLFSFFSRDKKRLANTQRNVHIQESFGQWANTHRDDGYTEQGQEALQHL
# UniProt Q5TKA1: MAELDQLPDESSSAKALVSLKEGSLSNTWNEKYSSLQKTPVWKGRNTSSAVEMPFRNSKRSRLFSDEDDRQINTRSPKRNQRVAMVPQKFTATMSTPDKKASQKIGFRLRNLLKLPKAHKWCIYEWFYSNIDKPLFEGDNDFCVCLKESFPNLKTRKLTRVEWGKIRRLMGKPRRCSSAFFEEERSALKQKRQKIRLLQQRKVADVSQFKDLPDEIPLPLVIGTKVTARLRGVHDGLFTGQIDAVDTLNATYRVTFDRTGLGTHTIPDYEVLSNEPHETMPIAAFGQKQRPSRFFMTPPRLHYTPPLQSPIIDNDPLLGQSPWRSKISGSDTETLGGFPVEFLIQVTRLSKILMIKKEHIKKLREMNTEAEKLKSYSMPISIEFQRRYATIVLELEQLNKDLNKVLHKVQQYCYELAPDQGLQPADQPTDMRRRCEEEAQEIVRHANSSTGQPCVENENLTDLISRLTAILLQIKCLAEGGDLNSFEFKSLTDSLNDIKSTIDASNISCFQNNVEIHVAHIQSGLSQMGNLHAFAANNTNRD
# UniProt Q5TCQ9: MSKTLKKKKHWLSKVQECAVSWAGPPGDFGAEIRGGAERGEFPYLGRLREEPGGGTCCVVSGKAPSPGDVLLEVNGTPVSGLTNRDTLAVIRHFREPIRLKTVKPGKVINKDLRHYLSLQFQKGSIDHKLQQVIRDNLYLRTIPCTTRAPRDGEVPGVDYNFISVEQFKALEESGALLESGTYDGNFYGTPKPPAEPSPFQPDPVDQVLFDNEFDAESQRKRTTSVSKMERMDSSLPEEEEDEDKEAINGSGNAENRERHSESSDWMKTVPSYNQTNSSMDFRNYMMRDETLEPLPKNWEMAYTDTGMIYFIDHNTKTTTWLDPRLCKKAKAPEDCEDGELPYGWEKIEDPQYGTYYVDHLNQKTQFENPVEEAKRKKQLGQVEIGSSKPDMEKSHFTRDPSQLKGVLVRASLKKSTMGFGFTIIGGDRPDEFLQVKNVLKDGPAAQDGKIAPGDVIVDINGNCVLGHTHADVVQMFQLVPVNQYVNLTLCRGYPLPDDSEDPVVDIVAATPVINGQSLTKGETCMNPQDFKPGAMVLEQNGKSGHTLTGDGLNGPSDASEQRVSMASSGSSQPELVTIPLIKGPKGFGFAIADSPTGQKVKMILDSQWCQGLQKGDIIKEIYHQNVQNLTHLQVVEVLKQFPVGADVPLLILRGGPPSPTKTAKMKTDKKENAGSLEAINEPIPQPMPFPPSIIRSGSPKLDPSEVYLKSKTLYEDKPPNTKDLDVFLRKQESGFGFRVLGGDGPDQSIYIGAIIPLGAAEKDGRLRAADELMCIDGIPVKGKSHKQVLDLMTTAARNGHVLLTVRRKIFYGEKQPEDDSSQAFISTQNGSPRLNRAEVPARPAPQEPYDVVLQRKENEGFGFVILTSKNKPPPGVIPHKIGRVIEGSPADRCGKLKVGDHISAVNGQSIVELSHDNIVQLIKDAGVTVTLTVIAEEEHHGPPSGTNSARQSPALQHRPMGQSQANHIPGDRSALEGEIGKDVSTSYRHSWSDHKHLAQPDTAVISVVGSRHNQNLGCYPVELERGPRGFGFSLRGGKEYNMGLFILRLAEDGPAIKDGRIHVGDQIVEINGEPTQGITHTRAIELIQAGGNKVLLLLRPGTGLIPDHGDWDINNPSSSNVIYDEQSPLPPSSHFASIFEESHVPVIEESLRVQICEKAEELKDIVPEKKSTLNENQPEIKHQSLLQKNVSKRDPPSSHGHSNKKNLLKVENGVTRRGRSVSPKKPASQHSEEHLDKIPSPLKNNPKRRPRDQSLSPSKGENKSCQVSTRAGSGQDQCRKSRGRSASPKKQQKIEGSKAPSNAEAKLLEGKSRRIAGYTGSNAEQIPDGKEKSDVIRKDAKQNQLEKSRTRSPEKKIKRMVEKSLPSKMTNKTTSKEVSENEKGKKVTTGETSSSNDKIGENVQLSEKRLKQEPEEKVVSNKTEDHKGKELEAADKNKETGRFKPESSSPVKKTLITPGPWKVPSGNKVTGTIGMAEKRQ
# UniProt Q5T447: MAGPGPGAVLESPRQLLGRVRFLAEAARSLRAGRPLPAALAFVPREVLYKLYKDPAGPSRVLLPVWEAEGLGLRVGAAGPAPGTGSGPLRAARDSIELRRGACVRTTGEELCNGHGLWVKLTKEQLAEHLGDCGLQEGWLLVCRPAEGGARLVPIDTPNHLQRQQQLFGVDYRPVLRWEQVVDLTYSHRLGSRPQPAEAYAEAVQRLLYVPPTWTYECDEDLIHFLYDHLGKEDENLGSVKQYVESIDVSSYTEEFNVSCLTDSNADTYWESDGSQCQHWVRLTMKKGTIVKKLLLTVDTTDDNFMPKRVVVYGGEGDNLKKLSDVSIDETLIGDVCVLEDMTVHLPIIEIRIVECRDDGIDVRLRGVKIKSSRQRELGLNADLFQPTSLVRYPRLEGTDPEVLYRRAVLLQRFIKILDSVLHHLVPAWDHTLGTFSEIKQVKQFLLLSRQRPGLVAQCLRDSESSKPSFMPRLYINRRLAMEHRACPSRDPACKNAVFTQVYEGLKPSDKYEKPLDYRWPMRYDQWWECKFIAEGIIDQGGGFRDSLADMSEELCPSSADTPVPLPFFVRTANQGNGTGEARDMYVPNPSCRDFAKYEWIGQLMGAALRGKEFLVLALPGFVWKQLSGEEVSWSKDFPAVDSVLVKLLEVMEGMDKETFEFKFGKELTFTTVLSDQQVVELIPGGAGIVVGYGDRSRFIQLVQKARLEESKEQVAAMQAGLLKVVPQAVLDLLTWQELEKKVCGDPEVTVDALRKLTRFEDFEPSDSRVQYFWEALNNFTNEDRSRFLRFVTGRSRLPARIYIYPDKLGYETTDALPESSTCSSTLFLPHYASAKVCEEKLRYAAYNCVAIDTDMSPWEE
# UniProt Q5RKV6, whole entry: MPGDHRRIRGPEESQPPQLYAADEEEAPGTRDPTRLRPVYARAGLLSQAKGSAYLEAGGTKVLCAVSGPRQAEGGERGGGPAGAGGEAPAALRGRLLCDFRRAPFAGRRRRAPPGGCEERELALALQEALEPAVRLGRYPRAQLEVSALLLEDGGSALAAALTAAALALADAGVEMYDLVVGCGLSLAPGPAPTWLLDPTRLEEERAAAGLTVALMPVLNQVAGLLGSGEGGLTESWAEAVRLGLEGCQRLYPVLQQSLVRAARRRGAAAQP
# The other results are listed elsewhere or left out. Most values lie at the level of the controls, where differences are scatter.
# Compound: Cc1nc(Nc2ncc(C(=O)Nc3c(C)cccc3Cl)s2)cc(N2CCN(CCO)CC2)n1 [dasatinib]
# Assay: log2 fold change of tryptic peptide abundance, ligand vs vehicle (limited proteolysis) (log2 ratio); higher = more trypsin-susceptible (destabilized)
# Conditions: ligand concentration: 5 uM; sample: K562 cleared lysate
row,Target,log2 fold change
1,"ZNF672 (peptide sequence: GFLESATLVR, peptide start residue: 235) (UniProt Q499Z4)",0.722
2,"PDSS1 (peptide sequence: FSLPGDVDR, peptide start residue: 354) (UniProt Q5T2R2)",-0.293
3,"FGD3 (peptide sequence: LQALPVGPR, peptide start residue: 32) (UniProt Q5JSP0)",0.0989
4,"UniProt Q53FT3 (peptide sequence: SGEGSQHPFGAMNIVR, peptide start residue: 89)",-0.0919
5,"MIA3 (peptide sequence: ELEDEVPILGR, peptide start residue: 643) (UniProt Q5JRA6)",-0.376
6,"UniProt Q5JSJ4 (peptide sequence: VKRPGEPNSPMSSK, peptide start residue: 609)",0.481
7,"UniProt Q5T5D7 (peptide sequence: NLISVGCPITK, peptide start residue: 43)",0.0101
8,"UniProt Q49AM3 (peptide sequence: SHPNQPLSQTQSR, peptide start residue: 479)",0.306
9,"NT5DC1 (peptide sequence: VVYFGDSMHSDIFPAR, peptide start residue: 308) (UniProt Q5TFE4)",-0.329
10,"VPS13D (peptide sequence: SLSLASTSR, peptide start residue: 2682) (UniProt Q5THJ4)",0.324
11,"UniProt Q5TEC6 (peptide sequence: SAPATGGVKKPHR, peptide start residue: 29)",-0.147
12,"FSIP2 (peptide sequence: KASDSTEAALK, peptide start residue: 3276) (UniProt Q5CZC0)",-0.058
13,"FAM133B (peptide sequence: LLSGSESSSK, peptide start residue: 80) (UniProt Q5BKY9)",0.00882
14,"SNAP47 (peptide sequence: GEELTGLMAGSQK, peptide start residue: 164) (UniProt Q5SQN1)",-0.292
15,"LARP7 (peptide sequence: SRPTSEGSDIESTEPQKQCSK, peptide start residue: 254) (UniProt Q4G0J3)",0.878
16,"THEM4 (peptide sequence: LMKEEQMSQAQLFTR, peptide start residue: 99) (UniProt Q5T1C6)",0.126
17,"BCL7A (peptide sequence: WVPVTEPK, peptide start residue: 48) (UniProt Q4VC05)",0.0874
18,"RILPL1 (peptide sequence: DVNFSEEEFQKHEGMSER, peptide start residue: 141) (UniProt Q5EBL4)",0.485
19,"UniProt Q5JSZ5 (peptide sequence: GYPLPHPK, peptide start residue: 756)",-0.194
20,"LDLRAP1 (peptide sequence: YLGMTLVEQPK, peptide start residue: 52) (UniProt Q5SW96)",0.376
21,"RBM20 (peptide sequence: ARQPSPFVDDCKTR, peptide start residue: 1056) (UniProt Q5T481)",0.881
22,"TAF1B (peptide sequence: EMVVNLQK, peptide start residue: 448) (UniProt Q53T94)",0.374
23,"LIN9 (peptide sequence: RRCEEEAQEIVR, peptide start residue: 433) (UniProt Q5TKA1)",0.659
24,"MAGI3 (peptide sequence: TQFENPVEEAK, peptide start residue: 365) (UniProt Q5TCQ9)",0.269
25,"UniProt Q53TQ3 (peptide sequence: HASDDDDAESR, peptide start residue: 357)",0.764
26,"HECTD3 (peptide sequence: QQQLFGVDYRPVLR, peptide start residue: 164) (UniProt Q5T447)",0.0654
27,"EXOSC6 (peptide sequence: GGGPAGAGGEAPAALR, peptide start residue: 78) (UniProt Q5RKV6)",-0.266
28,"CPTP (peptide sequence: RAVTVAFCTLPTR, peptide start residue: 156) (UniProt Q5TA50)",-0.536

# A second format for part of the listing above:
row	Target	log2 fold change
3	FGD3 (peptide sequence: LQALPVGPR, peptide start residue: 32) (UniProt Q5JSP0)	0.0989
20	LDLRAP1 (peptide sequence: YLGMTLVEQPK, peptide start residue: 52) (UniProt Q5SW96)	0.376
